The whole screen tested about 350,000 compounds, of which about 220 (0.063%) were called active. Inconclusive means that the source gave no clear call. Such entries were picked first, then a sample of the others. Calls follow the shape of the dose curve; as a rule, active = well fitted activation curve with a large enough effect; inconclusive = small, poorly fitted or top-dose-only effect; inactive = no such curve, though single readings can be large or run the other way. Potencies beside an inconclusive call are fits to weak or partial responses and may not hold up.
assay: qHTS for Activators of Integrin-Mediated Alleviation for Muscular Dystrophy; settings: alpha7betagal myoblasts, beta-gal FDG fluorescence, 48 h; activation: at 38.3 µM (top of the series); also: nearly all actives have a fitted effect of over 60% in size;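 as to activation: 100% = response of the positive control SU9516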
In short: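 Alpha7betagal+/- myoblasts (passage 13) were plated 16-24 hr, then exposed to compounds (1:260 dilution of DMSO stock) for 48 hours at 37C. After MPER lysis, β-galactosidase reporter activity was read as FDG fluorescence (ex 480/em 540) after 30 minutes.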
Potency is read from the fitted curve at half-maximal effect.

SMILES	Potency	activation
COc1ccccc1NC(=O)Nc1cc(F)ccc1F	inconclusive: 3.16 µM [activator, single point]	
Cc1cccnc1NC(=O)CCc1nnc2ccc(NCc3ccco3)nn12	inconclusive: 0.355 µM [activator, full curve, poor fit]	
CCN1CCN(C(=O)c2ccc(CS(=O)(=O)Cc3ccccc3C)o2)CC1		inconclusive: 34.8% [activator]
COc1ccc(NC(=O)c2cccc([N+](=O)[O-])c2)cc1	inactive	
CC(C)C(NC(=O)/C=C/c1ccc(F)cc1)C(C)C	inconclusive: 10 µM [activator, partial curve, poor fit]	
CN1CCc2c(sc3c2C(=O)NC(c2cn(Cc4ccccc4)c4ccccc24)N3)C1 (stereo not given)	inactive	
CCOC(=O)c1sc(NC(=O)c2ccncc2)c(C#N)c1C	inactive	
CCOc1ccccc1/C=N/Nc1ccc(Cl)nn1	inconclusive: 2 µM [activator, full curve, poor fit]	
O=C(O)c1ccc(N/N=C2/CCCc3ccccc32)cc1	inactive	
O=C(CS(=O)(=O)c1ccc(Br)cc1)N1CCOCC1	inconclusive: 5.01 µM [activator, single point]	
CCOC(=O)N1CCC(NC(=O)C2CCCN2C(=O)OCc2ccccc2)CC1 (stereo not given)	inconclusive: 5.01 µM [activator, single point]	
N#CC(C#N)=Cc1cccn1-c1ccc(S(N)(=O)=O)cc1	inconclusive: 5.01 µM [activator, single point]	
O=C(O)CSc1nnc(COc2ccc([N+](=O)[O-])cc2)n1-c1ccccc1	inconclusive: 11.2 µM [activator, partial curve, poor fit]	
C=CCn1c2ccccc2c2nnc(SCCN3CCOCC3)nc21	inactive	
Cc1ccccc1NS(=O)(=O)c1ccc(C2CNC(=O)C2)cc1 (stereo not given)	inconclusive: 7.08 µM [activator, partial curve, poor fit]	
Cc1ccc(C)c(OCC(=O)N(C)CC(=O)Nc2ccc(Cl)c(C(F)(F)F)c2)c1	inconclusive: 10 µM [activator, single point]	
O=C(c1cc(-c2ccco2)on1)N1CCCc2ccccc21	inactive	
CC(=O)c1ccc(NC(=O)CN2c3cccc4cccc(c34)S2(=O)=O)cc1		inconclusive: -2.46% [activator]
CCOC(=O)C1(Cc2ccc(OC)cc2)CCN(C(=O)CC2CCC(=O)N2)CC1 (stereo not given)	inconclusive: 4.47 µM [activator, single point]	
O=C(O)C1(c2ccccc2)CCN(S(=O)(=O)c2ccc(F)c(F)c2)CC1	inconclusive: 3.16 µM [activator, partial curve, poor fit]	

A draw from above in order of number of heavy atoms, largest number first:
SMILES	Potency	activation
CN1CCc2c(sc3c2C(=O)NC(c2cn(Cc4ccccc4)c4ccccc24)N3)C1 (stereo not given)	inactive	
O=C(O)c1ccc(N/N=C2/CCCc3ccccc32)cc1	inactive	
COc1ccc(NC(=O)c2cccc([N+](=O)[O-])c2)cc1	inactive	
CC(C)C(NC(=O)/C=C/c1ccc(F)cc1)C(C)C	inconclusive: 10 µM [activator, partial curve, poor fit]	

Source: PubChem BioAssay AID624291 (National Center for Advancing Translational Sciences (NCATS), 2012)
